Laboratory results: the supplement of paper PMC10849652
The other results are listed elsewhere or left out.

Sequences of proteins named here, by UniProt entry; tags and fusion partners are left off. A change or cut given only in a name is not applied to a line headed by its entry.
UniProt Q9BRB3: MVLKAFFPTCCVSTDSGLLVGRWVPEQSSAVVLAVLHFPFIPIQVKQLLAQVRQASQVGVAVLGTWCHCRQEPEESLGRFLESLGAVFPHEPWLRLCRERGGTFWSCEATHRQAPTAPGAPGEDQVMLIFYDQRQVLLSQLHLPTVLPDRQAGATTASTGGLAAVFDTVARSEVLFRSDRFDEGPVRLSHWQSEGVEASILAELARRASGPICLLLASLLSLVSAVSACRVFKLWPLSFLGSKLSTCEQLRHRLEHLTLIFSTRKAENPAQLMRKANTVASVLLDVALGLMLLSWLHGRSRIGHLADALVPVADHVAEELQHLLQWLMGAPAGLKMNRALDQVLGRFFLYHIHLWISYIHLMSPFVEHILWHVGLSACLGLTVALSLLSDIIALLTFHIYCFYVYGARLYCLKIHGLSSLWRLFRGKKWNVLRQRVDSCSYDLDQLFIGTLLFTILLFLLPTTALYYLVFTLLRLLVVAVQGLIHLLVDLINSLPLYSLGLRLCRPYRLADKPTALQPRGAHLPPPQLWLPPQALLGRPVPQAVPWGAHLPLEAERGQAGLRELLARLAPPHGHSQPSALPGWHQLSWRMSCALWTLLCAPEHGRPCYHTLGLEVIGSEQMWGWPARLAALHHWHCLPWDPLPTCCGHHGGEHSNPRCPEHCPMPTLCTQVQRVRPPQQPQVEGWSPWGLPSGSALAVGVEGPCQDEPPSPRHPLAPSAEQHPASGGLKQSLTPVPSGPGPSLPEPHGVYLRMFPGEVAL
UniProt Q86UU1: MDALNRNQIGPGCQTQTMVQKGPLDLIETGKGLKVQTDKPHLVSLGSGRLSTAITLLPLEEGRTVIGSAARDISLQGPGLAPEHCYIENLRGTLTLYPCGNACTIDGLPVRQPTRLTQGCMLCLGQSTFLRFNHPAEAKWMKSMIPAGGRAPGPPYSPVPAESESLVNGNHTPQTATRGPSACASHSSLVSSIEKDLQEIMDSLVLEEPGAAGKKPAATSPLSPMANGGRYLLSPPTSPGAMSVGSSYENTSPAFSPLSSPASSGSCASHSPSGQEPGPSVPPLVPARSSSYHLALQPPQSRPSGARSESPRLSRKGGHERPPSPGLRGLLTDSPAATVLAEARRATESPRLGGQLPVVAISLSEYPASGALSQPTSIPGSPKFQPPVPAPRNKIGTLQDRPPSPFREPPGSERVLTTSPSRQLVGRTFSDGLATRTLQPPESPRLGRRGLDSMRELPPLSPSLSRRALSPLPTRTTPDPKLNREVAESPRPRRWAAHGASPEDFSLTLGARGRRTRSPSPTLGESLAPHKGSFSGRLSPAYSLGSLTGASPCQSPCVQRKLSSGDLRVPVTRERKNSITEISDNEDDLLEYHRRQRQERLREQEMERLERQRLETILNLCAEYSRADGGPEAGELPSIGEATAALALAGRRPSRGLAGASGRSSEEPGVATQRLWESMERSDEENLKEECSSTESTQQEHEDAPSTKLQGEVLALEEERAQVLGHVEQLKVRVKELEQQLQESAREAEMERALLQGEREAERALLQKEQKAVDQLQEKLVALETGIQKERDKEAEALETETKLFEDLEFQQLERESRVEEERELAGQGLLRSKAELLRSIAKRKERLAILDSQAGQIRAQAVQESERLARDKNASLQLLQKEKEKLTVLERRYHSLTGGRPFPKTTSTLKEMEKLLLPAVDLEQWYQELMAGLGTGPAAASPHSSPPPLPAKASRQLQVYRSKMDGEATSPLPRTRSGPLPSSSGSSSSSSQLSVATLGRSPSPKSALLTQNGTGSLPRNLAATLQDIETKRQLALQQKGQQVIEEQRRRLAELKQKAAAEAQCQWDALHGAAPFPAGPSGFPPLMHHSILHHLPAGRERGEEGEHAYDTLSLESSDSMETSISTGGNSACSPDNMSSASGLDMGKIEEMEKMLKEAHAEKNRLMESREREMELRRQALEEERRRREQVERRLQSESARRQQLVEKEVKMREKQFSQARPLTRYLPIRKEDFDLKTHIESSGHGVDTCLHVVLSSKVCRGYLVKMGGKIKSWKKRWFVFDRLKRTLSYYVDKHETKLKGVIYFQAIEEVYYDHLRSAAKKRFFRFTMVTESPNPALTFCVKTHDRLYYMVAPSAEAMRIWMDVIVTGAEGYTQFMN
UniProt Q9Y2B2: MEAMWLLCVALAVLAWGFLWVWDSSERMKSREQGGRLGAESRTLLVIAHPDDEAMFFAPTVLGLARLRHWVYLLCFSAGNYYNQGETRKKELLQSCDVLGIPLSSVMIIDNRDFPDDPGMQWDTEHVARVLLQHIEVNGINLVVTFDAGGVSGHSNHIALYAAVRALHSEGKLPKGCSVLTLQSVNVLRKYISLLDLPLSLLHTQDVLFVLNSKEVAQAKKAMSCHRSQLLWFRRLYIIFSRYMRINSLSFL
UniProt P56589: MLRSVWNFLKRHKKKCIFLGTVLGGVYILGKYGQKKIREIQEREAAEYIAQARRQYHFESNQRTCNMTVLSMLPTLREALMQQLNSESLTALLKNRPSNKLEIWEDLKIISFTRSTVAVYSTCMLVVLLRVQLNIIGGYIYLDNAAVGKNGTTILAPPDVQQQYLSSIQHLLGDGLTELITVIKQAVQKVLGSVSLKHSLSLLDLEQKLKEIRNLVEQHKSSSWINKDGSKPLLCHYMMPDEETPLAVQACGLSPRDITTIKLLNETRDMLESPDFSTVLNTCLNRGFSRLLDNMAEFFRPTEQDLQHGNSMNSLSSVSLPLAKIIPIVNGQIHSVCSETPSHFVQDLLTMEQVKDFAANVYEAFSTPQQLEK
UniProt Q8N2W9: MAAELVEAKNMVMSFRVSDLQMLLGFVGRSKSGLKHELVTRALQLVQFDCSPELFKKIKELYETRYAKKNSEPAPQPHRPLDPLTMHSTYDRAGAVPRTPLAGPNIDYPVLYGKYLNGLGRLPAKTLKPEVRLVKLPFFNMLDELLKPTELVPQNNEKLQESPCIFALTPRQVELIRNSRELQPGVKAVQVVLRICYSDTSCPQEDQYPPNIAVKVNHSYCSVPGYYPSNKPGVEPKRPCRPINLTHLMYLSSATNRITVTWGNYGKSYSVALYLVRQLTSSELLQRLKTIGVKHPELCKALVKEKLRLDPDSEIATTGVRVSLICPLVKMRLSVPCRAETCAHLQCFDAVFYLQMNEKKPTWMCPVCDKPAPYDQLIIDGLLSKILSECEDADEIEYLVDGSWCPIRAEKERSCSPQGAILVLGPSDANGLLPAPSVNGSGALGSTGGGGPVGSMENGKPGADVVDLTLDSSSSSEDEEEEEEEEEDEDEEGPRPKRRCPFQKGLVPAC
UniProt O00329: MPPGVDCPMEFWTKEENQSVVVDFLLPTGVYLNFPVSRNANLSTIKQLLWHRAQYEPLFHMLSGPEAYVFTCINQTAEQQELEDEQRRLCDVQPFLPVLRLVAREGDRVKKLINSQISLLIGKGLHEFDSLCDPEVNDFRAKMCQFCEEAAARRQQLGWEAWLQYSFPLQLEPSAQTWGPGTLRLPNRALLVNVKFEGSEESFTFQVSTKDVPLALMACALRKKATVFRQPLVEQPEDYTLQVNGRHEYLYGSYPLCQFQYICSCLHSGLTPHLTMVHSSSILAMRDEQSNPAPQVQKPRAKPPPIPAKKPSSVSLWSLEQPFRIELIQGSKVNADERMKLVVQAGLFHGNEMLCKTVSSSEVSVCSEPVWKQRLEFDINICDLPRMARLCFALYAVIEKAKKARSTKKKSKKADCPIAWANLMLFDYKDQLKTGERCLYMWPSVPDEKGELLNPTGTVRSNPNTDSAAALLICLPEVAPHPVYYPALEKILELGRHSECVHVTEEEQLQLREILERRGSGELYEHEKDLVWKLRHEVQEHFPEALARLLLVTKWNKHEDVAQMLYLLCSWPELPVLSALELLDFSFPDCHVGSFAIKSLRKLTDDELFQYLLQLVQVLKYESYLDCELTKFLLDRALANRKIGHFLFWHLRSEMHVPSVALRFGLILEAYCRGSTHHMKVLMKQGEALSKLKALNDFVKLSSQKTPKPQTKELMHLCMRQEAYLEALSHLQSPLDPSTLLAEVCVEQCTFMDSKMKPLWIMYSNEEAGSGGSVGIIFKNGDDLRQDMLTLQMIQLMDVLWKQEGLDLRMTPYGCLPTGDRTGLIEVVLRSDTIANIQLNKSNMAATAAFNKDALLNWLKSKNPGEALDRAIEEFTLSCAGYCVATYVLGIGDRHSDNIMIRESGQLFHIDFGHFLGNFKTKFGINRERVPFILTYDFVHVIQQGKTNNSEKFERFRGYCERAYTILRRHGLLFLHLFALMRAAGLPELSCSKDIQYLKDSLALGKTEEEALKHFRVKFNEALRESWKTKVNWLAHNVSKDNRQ
UniProt Q9NXJ5: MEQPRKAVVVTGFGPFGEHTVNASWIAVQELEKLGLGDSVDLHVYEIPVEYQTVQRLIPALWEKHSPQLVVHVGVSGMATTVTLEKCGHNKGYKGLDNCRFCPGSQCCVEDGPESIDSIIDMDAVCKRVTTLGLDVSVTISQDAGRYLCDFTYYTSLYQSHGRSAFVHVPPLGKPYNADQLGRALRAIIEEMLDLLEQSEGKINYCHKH
UniProt Q14442: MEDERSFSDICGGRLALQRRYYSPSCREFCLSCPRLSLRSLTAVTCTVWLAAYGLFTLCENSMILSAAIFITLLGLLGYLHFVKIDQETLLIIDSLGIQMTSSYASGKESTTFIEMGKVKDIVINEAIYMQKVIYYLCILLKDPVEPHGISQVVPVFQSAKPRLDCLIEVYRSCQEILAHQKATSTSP
UniProt O15067: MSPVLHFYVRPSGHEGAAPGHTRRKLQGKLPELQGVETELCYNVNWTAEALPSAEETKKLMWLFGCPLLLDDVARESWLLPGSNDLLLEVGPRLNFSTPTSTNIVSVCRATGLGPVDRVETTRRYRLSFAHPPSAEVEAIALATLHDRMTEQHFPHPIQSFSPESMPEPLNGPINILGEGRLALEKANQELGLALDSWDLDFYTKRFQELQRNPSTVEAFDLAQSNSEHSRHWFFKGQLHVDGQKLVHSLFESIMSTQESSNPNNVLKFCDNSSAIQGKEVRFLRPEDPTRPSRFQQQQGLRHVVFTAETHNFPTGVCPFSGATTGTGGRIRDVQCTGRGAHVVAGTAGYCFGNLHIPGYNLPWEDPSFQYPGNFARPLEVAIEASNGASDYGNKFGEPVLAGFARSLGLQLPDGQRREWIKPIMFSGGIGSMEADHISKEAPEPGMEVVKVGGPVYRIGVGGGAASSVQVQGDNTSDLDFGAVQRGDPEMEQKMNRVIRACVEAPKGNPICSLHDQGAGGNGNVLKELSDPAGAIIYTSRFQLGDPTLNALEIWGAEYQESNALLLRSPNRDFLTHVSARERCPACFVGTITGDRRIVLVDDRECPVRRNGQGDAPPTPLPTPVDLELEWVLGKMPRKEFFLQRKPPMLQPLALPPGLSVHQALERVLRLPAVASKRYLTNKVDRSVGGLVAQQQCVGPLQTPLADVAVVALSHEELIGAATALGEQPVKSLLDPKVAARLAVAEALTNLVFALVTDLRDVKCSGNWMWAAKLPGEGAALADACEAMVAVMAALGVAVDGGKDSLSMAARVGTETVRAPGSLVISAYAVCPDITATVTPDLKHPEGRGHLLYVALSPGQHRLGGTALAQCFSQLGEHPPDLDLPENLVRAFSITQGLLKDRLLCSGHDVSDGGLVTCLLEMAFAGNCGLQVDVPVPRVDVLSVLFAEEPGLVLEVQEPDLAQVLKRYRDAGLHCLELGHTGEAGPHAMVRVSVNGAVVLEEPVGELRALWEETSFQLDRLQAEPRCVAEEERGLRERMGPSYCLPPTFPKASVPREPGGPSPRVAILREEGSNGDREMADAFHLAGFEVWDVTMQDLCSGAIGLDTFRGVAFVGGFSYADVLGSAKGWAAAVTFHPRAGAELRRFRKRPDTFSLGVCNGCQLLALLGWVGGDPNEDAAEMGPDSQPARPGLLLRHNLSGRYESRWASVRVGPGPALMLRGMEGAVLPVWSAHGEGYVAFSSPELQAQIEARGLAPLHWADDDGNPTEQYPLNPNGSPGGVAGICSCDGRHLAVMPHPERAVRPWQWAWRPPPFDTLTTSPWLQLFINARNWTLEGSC
UniProt Q9UG56: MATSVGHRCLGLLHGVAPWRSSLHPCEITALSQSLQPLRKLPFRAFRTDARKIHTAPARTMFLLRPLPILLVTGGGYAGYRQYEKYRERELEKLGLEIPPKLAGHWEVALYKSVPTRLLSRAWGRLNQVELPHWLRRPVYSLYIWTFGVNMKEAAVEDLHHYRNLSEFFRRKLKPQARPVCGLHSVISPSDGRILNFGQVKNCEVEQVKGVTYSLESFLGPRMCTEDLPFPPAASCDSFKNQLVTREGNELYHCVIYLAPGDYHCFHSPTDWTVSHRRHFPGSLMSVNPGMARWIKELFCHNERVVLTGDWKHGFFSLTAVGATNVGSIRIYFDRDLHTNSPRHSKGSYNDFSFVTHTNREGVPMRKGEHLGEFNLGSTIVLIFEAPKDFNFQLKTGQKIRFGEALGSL

Key:
Test in all cases: log2 fold change, soluble protein after heating vs DMSO (PISA); higher = thermal stabilisation; K562 cells, 10 uM, 30 min; active = over 0.2 and 3.5 SD of the protein, either way, in both replicates (recomputed)
[1] = compound: COC1=CC=C(C=C1)CN2C=CC3=C2C=C(C=C3)C(=O)NO
Procedure, shortened: (§1)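 Aliquots of K562 cells (2×10^6 cells/mL) treated with 10 μM compound for 30 min were heated for 3 min over 48°C-58°C. After pooling and extraction in PBS with 0.5% NP-40 at 4°C, soluble protein from a 21,000xg, 90 min spin was quantified by TMTpro 16plex LC-MS/MS with channel sums equalised. Thermal stability is expressed against control samples, from duplicates, as a log2 fold change.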

[2] = compound: CON(C)C(=O)N1N=C(c2cc(F)ccc2F)S[C@@]1(CCCN)c1ccccc1 [filanesib]
Procedure, shortened: as §1

[3] = compound: CO[C@H]1C[C@@H]2CC[C@@H](C)[C@@](O)(O2)C(=O)C(=O)N2CCCC[C@H]2C(=O)O[C@H]([C@H](C)C[C@@H]2CC[C@H](n3cnnn3)[C@H](OC)C2)CC(=O)[C@H](C)/C=C(\C)[C@@H](O)[C@@H](OC)C(=O)[C@H](C)C[C@H](C)/C=C/C=C/C=C/1C [zotarolimus]
Procedure, shortened: as §1

[4] = compound: COc1cc(C(=O)O)ccc1NC(=O)[C@@H]1N[C@@H](CC(C)(C)C)[C@](C#N)(c2ccc(Cl)cc2F)[C@H]1c1cccc(Cl)c1F [idasanutlin]
Procedure, shortened: as §1

[5] = compound: COc1cc(Nc2ncc3c(n2)-c2ccc(Cl)cc2C(c2c(F)cccc2OC)=NC3)ccc1C(=O)O [alisertib]
Procedure, shortened: as §1

[6] = compound: COc1cc2ncnc(Nc3ccc(F)c(Cl)c3)c2cc1OCCCN1CCOCC1 [gefitinib]
Procedure, shortened: as §1

[7] = compound: COc1cccc2cc(-c3nc([C@H]4CC[C@H](C(=O)O)CC4)n4ncnc(N)c34)[nH]c12
Procedure, shortened: as §1

[8] = compound: CS(=O)(=O)N1CCN(Cc2cc3nc(-c4cccc5[nH]ncc45)nc(N4CCOCC4)c3s2)CC1 [pictilisib]
Procedure, shortened: as §1

[9] = compound: CS(=O)(=O)c1ccc(-c2cnc(N)c(C(=O)Nc3ccccc3)n2)cc1
Procedure, shortened: as §1

[10] = compound: C[C@@H](Oc1cc(-c2cnn(C3CCNCC3)c2)cnc1N)c1c(Cl)ccc(F)c1Cl [crizotinib]
Procedure, shortened: as §1

[11] = compound: C[C@@H]1COCCN1C2=NC(=NC(=C2)C3(CC3)S(=O)(=O)C)C4=C5C=CNC5=CC=C4
Procedure, shortened: as §1

[12] = compound: C[C@H](C1=CC=C(C=C1)C(=O)NC2=C3C=CNC3=NC=C2)N
Procedure, shortened: as §1

[13] = compound: C[C@H](Nc1ncnc2nc[nH]c12)c1cc2cccc(Cl)c2c(=O)n1-c1ccccc1 [duvelisib]
Procedure, shortened: as §1

[14] = compound: Cc1cc(Nc2cc(CN3CCOCC3)c3nc(C)c(Cc4ccc(Cl)cc4F)n3n2)n[nH]1 [gandotinib]
Procedure, shortened: as §1

[15] = compound: Cc1cc(Nc2cc(N3CCN(C)CC3)nc(Sc3ccc(NC(=O)C4CC4)cc3)n2)n[nH]1 [tozasertib]
Procedure, shortened: as §1

[16] = compound: Cc1cc(SCc2sc(-c3ccc(C(F)(F)F)cc3)nc2C)ccc1OCC(=O)O
Procedure, shortened: as §1

[17] = compound: Cc1ccc(-n2nc(C(C)(C)C)cc2NC(=O)Nc2ccc(OCCN3CCOCC3)c3ccccc23)cc1 [doramapimod]
Procedure, shortened: as §1

[18] = compound: Cc1ccc(C(=O)N(CCCN)[C@@H](c2nc3cc(Cl)ccc3c(=O)n2Cc2ccccc2)C(C)C)cc1 [ispinesib]
Procedure, shortened: as §1

[19] = compound: COc1cc2nc(-c3cc(F)ccc3O)nc(N[C@@H]3CNC[C@H]3C(C)(C)O)c2cc1OC
Procedure, shortened: as §1

[20] = compound: CS(=O)(=O)CCNCc1ccc(-c2ccc3ncnc(Nc4ccc(OCc5cccc(F)c5)c(Cl)c4)c3c2)o1 [lapatinib]
Procedure, shortened: as §1

Measured: log2 fold change

PIGQ (UniProt Q9BRB3)
inactive: [1] 0.033 | [2] -0.454 | [3] 0.078 | [4] -0.075 | [5] -0.216 | [6] 0.025 | [7] -0.102 | [8] 0.089 | [9] 0.142 | [10] 0.039 | [11] 0.061 | [12] -0.179 | [13] 0.094 | [14] -0.029 | [15] 0.081 | [16] 0.072 | [17] -0.027 | [18] 0.117

PLEK (UniProt P08567)
inactive: [1] -0.095 | [19] -0.208 | [20] -0.239 | [10] 0.313 | [17] 0.152 | [18] -0.089

PHLDB1 isoform 2 (UniProt Q86UU1)
active: [8] -0.498 | [13] -0.759
inactive: [1] 0 | [3] 0.014 | [4] -0.033 | [5] -0.098 | [19] -0.069 | [6] 0.149 | [7] -0.032 | [20] -0.039 | [10] -0.307 | [11] 0.058 | [12] -0.043 | [14] -0.281 | [16] 0.108 | [17] 0.032 | [18] -0.053

PIGL (UniProt Q9Y2B2)
inactive: [1] 0.104 | [3] 0.066 | [4] -0.11 | [5] -0.033 | [6] -0.121 | [7] -0.076 | [8] -0.034 | [10] -0.114 | [11] -0.001 | [12] 0.005 | [13] 0.008 | [14] -0.04 | [15] -0.066 | [16] -0.031 | [17] 0 | [18] 0.086

PEX3 (UniProt P56589)
inactive: [1] -0.055 | [2] 0.282 | [3] 0.137 | [4] -0.112 | [5] 0.001 | [19] 0.298 | [6] -0.044 | [7] -0.185 | [20] -0.009 | [9] 0.193 | [10] 0.009 | [11] -0.068 | [12] -0.015 | [13] -0.353 | [15] -0.149 | [16] 0.063 | [17] -0.044 | [18] 0.105

PIAS1 isoform 2 (UniProt O75925)
inactive: [1] 0.046 | [19] 0.172 | [20] 0.016 | [10] -0.161 | [17] -0.076 | [18] -0.121

PKM isoform 2 (UniProt P14618)
inactive: [1] 0.141 | [2] 0.04 | [4] -0.049 | [5] -0.139 | [19] 0.141 | [6] -0.056 | [7] 0.059 | [20] -0.115 | [8] 0.109 | [9] -0.053 | [10] -0.033 | [11] -0.154 | [14] 0.131 | [16] 0.12 | [17] 0.029 | [18] 0.016

PIAS4 (UniProt Q8N2W9)
inactive: [1] 0.049 | [5] -0.566 | [19] 0.069 | [7] -0.167 | [20] -0.017 | [8] -0.257 | [10] -0.178 | [11] 0.047 | [14] -0.013 | [16] 0.021 | [17] 0.061 | [18] -0.278

PIK3CG (UniProt P48736)
inactive: [1] 0.162 | [2] -0.095 | [4] 0.106 | [9] 0.187 | [10] -0.12 | [11] -0.078 | [17] 0.322

PIK3CD (UniProt O00329)
inactive: [1] -0.016 | [2] 0.029 | [3] -0.098 | [4] 0.105 | [19] 0.02 | [20] -0.018 | [9] -0.019 | [10] 0.009 | [11] 0.034 | [12] 0.14 | [16] -0.11 | [17] 0.042 | [18] -0.029

PGPEP1 (UniProt Q9NXJ5)
inactive: [1] 0.089 | [2] 0.039 | [3] 0.028 | [4] 0.086 | [5] -0.006 | [19] -0.104 | [7] 0.012 | [20] -0.02 | [9] 0.004 | [10] -0.193 | [11] 0.07 | [12] 0.08 | [13] -0.02 | [16] 0.136 | [17] -0.008 | [18] 0.083

PGD (UniProt K7EM49)
inactive: [1] -0.24 | [19] 0.271 | [20] -0.078 | [8] 0.334 | [10] 0.1 | [11] 0.089 | [14] -0.067 | [17] -0.009 | [18] -0.075

PHF10 (UniProt Q8WUB8)
inactive: [1] 0.041 | [2] 0.051 | [3] 0.034 | [4] 0.183 | [19] -0.02 | [20] 0.108 | [8] -0.174 | [9] -0.015 | [10] -0.131 | [11] -0.015 | [12] 0.207 | [13] 0 | [14] 0.05 | [15] 0.07 | [16] 0.042 | [17] 0.005 | [18] 0.076

2 records drawn at random from those above, as already listed:
PIGQ (UniProt Q9BRB3)
inactive: [1] 0.033 | [2] -0.454 | [3] 0.078 | [4] -0.075 | [5] -0.216 | [6] 0.025 | [7] -0.102 | [8] 0.089 | [9] 0.142 | [10] 0.039 | [11] 0.061 | [12] -0.179 | [13] 0.094 | [14] -0.029 | [15] 0.081 | [16] 0.072 | [17] -0.027 | [18] 0.117

PIK3CD (UniProt O00329)
inactive: [1] -0.016 | [2] 0.029 | [3] -0.098 | [4] 0.105 | [19] 0.02 | [20] -0.018 | [9] -0.019 | [10] 0.009 | [11] 0.034 | [12] 0.14 | [16] -0.11 | [17] 0.042 | [18] -0.029

(cont.)

PIGM (UniProt Q9H3S5)
inactive: [1] 0.166 | [2] 0.046 | [3] 0.095 | [6] 0.042 | [9] -0.026 | [10] -0.085 | [12] 0.325 | [13] -0.053 | [16] 0.117 | [17] -0.053

PFKM (UniProt F8VTQ3)
inactive: [1] 0.147 | [19] -0.165 | [20] 0.095 | [8] 0.193 | [10] -0.107 | [14] -0.688 | [17] 0.071

PIGH (UniProt Q14442)
inactive: [1] -0.029 | [3] 0.031 | [4] -0.127 | [5] 0.003 | [19] -0.019 | [7] 0.038 | [20] -0.009 | [8] 0.04 | [10] -0.037 | [11] -0.012 | [12] -0.179 | [14] 0.036 | [16] 0.04 | [17] -0.062 | [18] 0.033

PFAS (UniProt O15067)
inactive: [1] 0.149 | [2] -0.045 | [3] 0.069 | [4] 0.085 | [5] 0.029 | [19] 0.26 | [6] -0.005 | [7] 0.013 | [20] -0.063 | [9] -0.062 | [10] 0.124 | [11] 0.014 | [12] 0 | [14] -0.152 | [16] 0.081 | [17] -0.018 | [18] 0.128
active: [8] -0.449

PEX26 (UniProt Q7Z412)
inactive: [1] -0.019 | [3] 0.016 | [4] 0.099 | [5] -0.196 | [19] 0.087 | [6] 0.148 | [7] -0.006 | [20] -0.161 | [8] -0.033 | [10] -0.164 | [11] 0.232 | [12] 0.07 | [13] 0.034 | [14] -0.065 | [15] 0.08 | [16] 0.037 | [17] 0.219 | [18] -0.115

PIK3C2A (UniProt O00443)
inactive: [1] 0.088 | [2] -0.02 | [5] -0.076 | [6] -0.003 | [7] 0.017 | [9] -0.002 | [10] 0.158 | [11] -0.325 | [17] -0.045 | [18] -0.457

PISD (UniProt Q9UG56)
inactive: [1] -0.018 | [2] -0.012 | [3] 0.015 | [4] -0.074 | [5] -0.024 | [19] 0.148 | [6] 0.008 | [7] 0.012 | [20] -0.009 | [8] 0.036 | [9] 0 | [10] -0.023 | [11] 0.045 | [12] -0.018 | [14] -0.004 | [16] 0.036 | [17] 0.006 | [18] 0.02

PKP3 isoform 2 (UniProt Q9Y446)
inactive: [1] 0.013 | [2] 0.343 | [3] 0.068 | [4] 0.119 | [5] 0.548 | [19] 0.014 | [7] -0.257 | [20] -0.054 | [8] -0.072 | [9] 0.05 | [10] -0.089 | [11] -0.217 | [12] 0.141 | [13] -0.047 | [14] 0.023 | [15] -0.092 | [16] 0.278 | [17] 0.102 | [18] -0.276
